Read-outs that look alike come from different tables or passages of the source. Results are given in words; binding and its absence hold for the method and conditions named. Binding seen in cells or lysates may run through a third protein. Here binding means that the protein was enriched with, or labelled near, the bait; the list need not be complete. For part of these data: Where a sequence is shown, tags or fusion partners need not be part of it.
How the values were obtained:
[1] = molecular target: urokinase plasminogen activator receptor (plasminogen activator, urokinase receptor) (human (endogenous in MDA-MB-231)) (UniProt Q03405); experiment: affinity purification with mass spectrometry; co-IP of endogenous uPAR from MDA-MB-231 lysate with polyclonal anti-uPAR antibody (AF807), 60 min at 4°C, protein A/G PLUS beads 15 h at 4°C; polyclonal goat isotype antibody as negative control; Laemmli eluates analysed by LC-MS/MS (LTQ Orbitrap XL)
[2] = molecular target: urokinase plasminogen activator receptor (plasminogen activator, urokinase receptor) (human (endogenous in MDA-MB-231)) (UniProt Q03405); experiment: as above; remark: listed apart in the source

Sequences of proteins named here, by UniProt entry; tags and fusion partners are left off. Residues count along the entry.
UniProt Q03405, residues 23-305: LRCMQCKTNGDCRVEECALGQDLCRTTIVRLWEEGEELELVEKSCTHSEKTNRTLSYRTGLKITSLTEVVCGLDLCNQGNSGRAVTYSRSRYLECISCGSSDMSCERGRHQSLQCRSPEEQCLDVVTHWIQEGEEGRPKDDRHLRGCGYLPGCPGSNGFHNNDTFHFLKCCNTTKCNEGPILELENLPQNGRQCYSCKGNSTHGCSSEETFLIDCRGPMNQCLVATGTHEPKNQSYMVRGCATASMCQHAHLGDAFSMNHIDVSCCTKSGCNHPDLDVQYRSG
UniProt P67809: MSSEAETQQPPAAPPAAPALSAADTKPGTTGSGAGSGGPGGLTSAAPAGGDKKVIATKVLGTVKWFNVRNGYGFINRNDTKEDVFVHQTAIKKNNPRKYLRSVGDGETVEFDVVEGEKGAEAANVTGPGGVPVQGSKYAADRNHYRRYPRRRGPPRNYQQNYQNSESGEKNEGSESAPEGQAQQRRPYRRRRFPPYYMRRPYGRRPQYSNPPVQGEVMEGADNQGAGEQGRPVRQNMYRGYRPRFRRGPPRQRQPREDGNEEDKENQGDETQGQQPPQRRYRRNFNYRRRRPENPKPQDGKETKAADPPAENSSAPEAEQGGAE

Row | binding [1] | binding [2] | Molecule
1 | binds | – | Y-box-binding protein 1 (from UniProt P67809 1-324)
2 | binds | – | tubulin, alpha 4a (from UniProt P68366-1 1-448)
3 | – | binds | DEAH (Asp-Glu-Ala-His) box polypeptide 16 (protein, UniProt O60231 1-1041) MATPAGLERWVQDELHSVLGLSERHVAQFLIGTAQRCTSAEEFVQRLRDTDTLDLSGPARDFALRLWNKVPRKAVVEKPARAAEREARALLEKNRSYRLLEDSEESSEETVSRAGSSLQKKRKKRKHLRKKREEEEEEEASEKGKKKTGGSKQQTEKPESEDEWERTERERLQDLEERDAFAERVRQRDKDRTRNVLERSDKKAYEEAQKRLKMAEEDRKAMVPELRKKSRREYLAKREREKLEDLEAELADEEFLFGDVELSRHERQELKYKRRVRDLAREYRAAGEQEKLEATNRYHMPKETRGQPARAVDLVEEESGAPGEEQRRWEEARLGAASLKFGARDAASQEPKYQLVLEEEETIEFVRATQLQGDEEPSAPPTSTQAQQKESIQAVRRSLPVFPFREELLAAIANHQVLIIEGETGSGKTTQIPQYLFEEGYTNKGMKIACTQPRRVAAMSVAARVAREMGVKLGNEVGYSIRFEDCTSERTVLRYMTDGMLLREFLSEPDLASYSVVMVDEAHERTLHTDILFGLIKDVARFRPELKVLVASATMDTARFSTFFDDAPVFRIPGRRFPVDIFYTKAPEADYLEACVVSVLQIHVTQPPGDILVFLTGQEEIEAACEMLQDRCRRLGSKIRELLVLPIYANLPSDMQARIFQPTPPGARKVVVATNIAETSLTIEGIIYVLDPGFCKQKSYNPRTGMESLTVTPCSKASANQRAGRAGRVAAGKCFRLYTAWAYQHELEETTVPEIQRTSLGNVVLLLKSLGIHDLMHFDFLDPPPYETLLLALEQLYALGALNHLGELTTSGRKMAELPVDPMLSKMILASEKYSCSEEILTVAAMLSVNNSIFYRPKDKVVHADNARVNFFLPGGDHLVLLNVYTQWAESGYSSQWCYENFVQFRSMRRARDVREQLEGLLERVEVGLSSCQGDYIRVRKAITAGYFYHTARLTRSGYRTVKQQQTVFIHPNSSLFEQQPRWLLYHELVLTTKEFMRQVLEIESSWLLEVAPHYYKAKELEDPHAKKMPKKIGKTREELG
4 | – | binds | cell cycle associated protein 1 (protein, UniProt Q14444-1 1-709) MPSATSHSGSGSKSSGPPPPSGSSGSEAAAGAGAAAPASQHPATGTGAVQTEAMKQILGVIDKKLRNLEKKKGKLDDYQERMNKGERLNQDQLDAVSKYQEVTNNLEFAKELQRSFMALSQDIQKTIKKTARREQLMREEAEQKRLKTVLELQYVLDKLGDDEVRTDLKQGLNGVPILSEEELSLLDEFYKLVDPERDMSLRLNEQYEHASIHLWDLLEGKEKPVCGTTYKVLKEIVERVFQSNYFDSTHNHQNGLCEEEEAASAPAVEDQVPEAEPEPAEEYTEQSEVESTEYVNRQFMAETQFTSGEKEQVDEWTVETVEVVNSLQQQPQAASPSVPEPHSLTPVAQADPLVRRQRVQDLMAQMQGPYNFIQDSMLDFENQTLDPAIVSAQPMNPTQNMDMPQLVCPPVHSESRLAQPNQVPVQPEATQVPLVSSTSEGYTASQPLYQPSHATEQRPQKEPIDQIQATISLNTDQTTASSSLPAASQPQVFQAGTSKPLHSSGINVNAAPFQSMQTVFNMNAPVPPVNEPETLKQQNQYQASYNQSFSSQPHQVEQTELQQEQLQTVVGTYHGSPDQSHQVTGNHQQPPQQNTGFPRSNQPYYNSRGVSRGGSRGARGLMNGYRGPANGFRGGYDGYRPSFSNTPNSGYTQSQFSAPRDYSGYQRDGYQQNFKRGSGQSGPRGAPRGRGGPPRPNRGMPQMNTQQVN
5 | – | binds | cysteine-rich angiogenic inducer 61 (protein, UniProt O00622 25-381) TCPAACHCPLEAPKCAPGVGLVRDGCGCCKVCAKQLNEDCSKTQPCDHTKGLECNFGASSTALKGICRAQSEGRPCEYNSRIYQNGESFQPNCKHQCTCIDGAVGCIPLCPQELSLPNLGCPNPRLVKVTGQCCEEWVCDEDSIKDPMEDQDGLLGKELGFDASEVELTRNNELIAVGKGSSLKRLPVFGMEPRILYNPLQGQKCIVQTTSWSQCSKTCGTGISTRVTNDNPECRLVKETRICEVRPCGQPVYSSLKKGKKCSKTKKSPEPVRFTYAGCLSVKKYRPKYCGSCVDGRCCTPQLTRTVKMRFRCEDGETFSKNVMMIQSCKCNYNCPHANEAAFPFYRLFNDIHKFRD
6 | – | binds | tight junction protein 2 (protein, UniProt Q9UDY2-2 1-1043) MPVRGDRGFPPRRELSGWLRAPGMEELIWEQYTVTLQKDSKRGFGIAVSGGRDNPHFENGETSIVISDVLPGGPADGLLQENDRVVMVNGTPMEDVLHSFAVQQLRKSGKVAAIVVKRPRKVQVAALQASPPLDQDDRAFEVMDEFDGRSFRSGYSERSRLNSHGGRSRSWEDSPERGRPHERARSRERDLSRDRSRGRSLERGLDQDHARTRDRSRGRSLERGLDHDFGPSRDRDRDRSRGRSIDQDYERAYHRAYDPDYERAYSPEYRRGARHDARSRGPRSRSREHPHSRSPSPEPRGRPGPIGVLLMKSRANEEYGLRLGSQIFVKEMTRTGLATKDGNLHEGDIILKINGTVTENMSLTDARKLIEKSRGKLQLVVLRDSQQTLINIPSLNDSDSEIEDISEIESNRSFSPEERRHQYSDYDYHSSSEKLKERPSSREDTPSRLSRMGATPTPFKSTGDIAGTVVPETNKEPRYQEDPPAPQPKAAPRTFLRPSPEDEAIYGPNTKMVRFKKGDSVGLRLAGGNDVGIFVAGIQEGTSAEQEGLQEGDQILKVNTQDFRGLVREDAVLYLLEIPKGEMVTILAQSRADVYRDILACGRGDSFFIRSHFECEKETPQSLAFTRGEVFRVVDTLYDGKLGNWLAVRIGNELEKGLIPNKSRAEQMASVQNAQRDNAGDRADFWRMRGQRSGVKKNLRKSREDLTAVVSVSTKFPAYERVLLREAGFKRPVVLFGPIADIAMEKLANELPDWFQTAKTEPKDAGSEKSTGVVRLNTVRQIIEQDKHALLDVTPKAVDLLNYTQWFPIVIFFNPDSRQGVKTMRQRLNPTSNKSSRKLFDQANKLKKTCAHLFTATINLNSANDSWFGSLKDTIQHQQGEAVWVSEGKMEGMDDDPEDRMSYLTAMGADYLSCDSRLISDFEDTDGEGGAYTDNELDEPAEEPLVSSITRSSEPVQHEEIEIAQKHPDIYAVPIKTHKPDPGTPQHTSSRPPEPQKAPSRPYQDTRGSYGSDAEEEEYRQQLSEHSKRGYYGQSARYRDTEL

— article PMC5190079
